The list shows a part of the results. Many values rest on one well or one pass, so single values are uncertain.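 The apoptosis fraction was the count of cleaved-PARP antibody-stained nuclei relative to all DNA-stained nuclei, imaged in 1,536-well plates. Screening doses were set so most cells survived, and baseline and induced cleaved-PARP levels vary greatly across cell lines.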
What was measured:
Test in all cases: cleaved PARP positive nuclei fraction relative to DMSO control; melanoma cells; higher = more apoptosis
Details in all cases: library dose: low library concentration; 72 h
MZ2-MEL = tested on: MZ2-MEL
MeWo = tested on: MeWo
RPMI7951 = tested on: RPMI7951
RVH-421 = tested on: RVH-421
SkMel28 = tested on: SkMel28
SkMel2 = tested on: SkMel2
SkMel30 = tested on: SkMel30
SkMel5 = tested on: SkMel5
UACC257 = tested on: UACC257
UACC62 = tested on: UACC62
WM115 = tested on: WM115
WM1716 = tested on: WM1716
WM1745 = tested on: WM1745
WM3526 = tested on: WM3526
WM3619 = tested on: WM3619
WM451Lu = tested on: WM451Lu

SMILES | cleaved PARP positive nuclei fraction (MZ2-MEL) [%] | cleaved PARP positive nuclei fraction (MeWo) [%] | cleaved PARP positive nuclei fraction (RPMI7951) [%] | cleaved PARP positive nuclei fraction (RVH-421) [%] | cleaved PARP positive nuclei fraction (SkMel28) [%] | cleaved PARP positive nuclei fraction (SkMel2) [%] | cleaved PARP positive nuclei fraction (SkMel30) [%] | cleaved PARP positive nuclei fraction (SkMel5) [%] | cleaved PARP positive nuclei fraction (UACC257) [%] | cleaved PARP positive nuclei fraction (UACC62) [%] | cleaved PARP positive nuclei fraction (WM115) [%] | cleaved PARP positive nuclei fraction (WM1716) [%] | cleaved PARP positive nuclei fraction (WM1745) [%] | cleaved PARP positive nuclei fraction (WM3526) [%] | cleaved PARP positive nuclei fraction (WM3619) [%] | cleaved PARP positive nuclei fraction (WM451Lu) [%]
O=C(O)[C@@H]1[O][Sb](=[O])([O][Sb]2(=[O])[O][C@H]([C@H](O)CO)[C@H](O)[C@H](C(=O)O)[O]2)[O][C@H]([C@H](O)CO)[C@@H]1O (some centres undefined) [stibogluconate] + CCc1ccc(CCOc2ccc(CC3SC(=O)NC3=O)cc2)nc1 [pioglitazone] (first compound 2 µM, partner dose 2 µM) | 89.2 | 26.2 | 65.3 | 215 | 129 | 112 | 20.1 | 130 | 104 | 58.3 | 84.4 | 104 | 183 | 76.9 | 94.4 | 41.1
CCCS(=O)(=O)Nc1ccc(F)c(C(=O)c2c[nH]c3ncc(Cl)cc23)c1F + O=C1NC(=O)/C(=C/c2ccc(-c3ccc(F)cc3O)o2)S1 [AS252424] (first compound 0.08 µM, partner dose 1 µM) | 126 | 203 | 114 | 245 | 93.4 | 151 | 68.4 | 67.5 | 379 | 232 | 103 | 89 | 105 | 103 | 125 | 65.5
Cn1c(=O)n(-c2ccc(C(C)(C)C#N)cc2)c2c3cc(-c4cnc5ccccc5c4)ccc3ncc21 + Oc1nc(-c2ccc(C(F)(F)F)cc2)nc2c1CSCC2 [XAV939] (first compound 0.004 µM, partner dose 2 µM) | 62.4 | 94.4 | 74.4 | 469 | 144 | 84.2 | 81.6 | 86.5 | 46.6 | 1310 | 46.8 | 224 | 115 | 92.9 | 109 | 135
Cc1cc(Nc2cc(N3CCN(C)CC3)nc(/C=C/c3ccccc3)n2)n[nH]1 + Oc1nc(-c2ccc(C(F)(F)F)cc2)nc2c1CSCC2 [XAV939] (first compound 0.04 µM, partner dose 2 µM) | 77.6 | 29.3 | 90.5 | 62 | 55 | 111 | 353 | 88.5 | 263 | 36.6 | 216 | 178 | 109 | 70.5 | 92.8 | 74.3
C=C(c1ccc(C(=O)O)cc1)c1cc2c(cc1C)C(C)(C)CCC2(C)C [Bexarotene] + COc1cc2c(Oc3ccc4[nH]c(C)cc4c3F)ncnc2cc1OCCCN1CCCC1 [cediranib] (first compound 2 µM, partner dose 0.4 µM) | 133 | 51.1 | 76.3 | 98.3 | 74 | 242 | 130 | 322 | 74.8 | 86.7 | 94.7 | 169 | 100 | 103 | 105 | 36.2
Nc1ncn([C@H]2C[C@H](O)[C@@H](CO)O2)c(=O)n1 [decitabine] + COc1cc2c(Oc3ccc4[nH]c(C)cc4c3F)ncnc2cc1OCCCN1CCCC1 [cediranib] (first compound 0.1 µM, partner dose 0.4 µM) | 89.6 | 385 | 104 | 246 | 122 | 89.2 | 127 | 123 | 99.2 | 80 | 212 | 44.6 | 112 | 114 | 82.6 | 112
CN1CCN(c2ccc3nc(-c4c(N)c5c(F)cccc5[nH]c4=O)[nH]c3c2)CC1 [Dovitinib] + Cn1cc(/C=C2\C(=O)Nc3cccnc32)c2ccccc21 [GW441756] (first compound 0.1 µM, partner dose 0.4 µM) | 62.2 | 35.6 | 162 | 119 | 104 | 21.1 | 133 | 38.8 | 257 | 86.1 | 159 | 52.2 | 107 | 192 | 109 | 57.3
CS(=O)(=O)CCNCc1ccc(-c2ccc3ncnc(Nc4ccc(OCc5cccc(F)c5)c(Cl)c4)c3c2)o1 [lapatinib] + O=C(O)c1ccc(-c2c[nH]c3ncc(-c4ccccc4)cc23)cc1C1CCCC1 [GSK650394] (first compound 0.8 µM, partner dose 0.16 µM) | 146 | 94.7 | 38.1 | 70.6 | 69.7 | 67.1 | 394 | 140 | 60.7 | 182 | 115 | 54.6 | 81.1 | 41.1 | 78.4 | 125
CN1CCN(c2ccc3nc(-c4c(N)c5c(F)cccc5[nH]c4=O)[nH]c3c2)CC1 [Dovitinib] + CN(NC(=O)CC(=O)NN(C)C(=S)c1ccccc1)C(=S)c1ccccc1 [STA4783] (first compound 0.1 µM, partner dose 0.006 µM) | 43.6 | 105 | 72.1 | 97.9 | 30.4 | 43.6 | 96.7 | 139 | 149 | 282 | 186 | 123 | 154 | 60.9 | 124 | 110

Reference: the supplement of paper PMC4604168 (melanoma cell lines)
